Assay results: patent US6774145B1, “Material separated from Ecklonia cava, method for extracting and purifying the same, and use thereof as antioxidants” (Ventree Co., Ltd, priority 2000, dated 2004)
For at least one compound, name, drawing or mass did not settle the structure.

Assay: DPPH radical scavenging activity (Blois method)
Type: biochemical
Details: reacted 10 min, absorbance at 517 nm
Description: The antioxidative activity of the novel compound obtained through the extraction and purification process is evaluated by measuring its radical scavenging activity against 1,1-diphenyl-2-picrylhydrazyl (DPPH), which has free radicals attached thereto, according to the Blois method. A thermal stability of the compound of interest can be evaluated by measuring its antioxidative activity at plural temperature points.
Dicaval A and Dicaval B obtained in Example 3 were measured for antioxidative activity according to the Blois method. For this, an examination was made of the radical scavenging activity of the two compounds against 1,1-diphenyl-2-picrylhydrazyl (DPPH) to which free radicals were attached. First, 20 mg of DPPH was dissolved in 150 ml of ethanol to prepare a DPPH solution. To 600 μl of the DPPH solution was added with 250 μl of dimethylsulfoxide (DMSO), diluted with an appropriate amount of ethanol and shaken for 10 seconds, after which this control was adjusted, in absorbance at 517 nm, from 0.94 to 0.97. To 1 ml of the DPPH solution which was adjusted from 0.94 to 0.97 likewise, each of the samples (μg to mg) was added and then, reacted for 10 min, followed by measuring the absorbance of the solution. The antioxidative activity of each of the samples was determined by the DPPH radical scavenging activity which was represented by a reduced absorbance compared with that of the control.
The antioxidative activity was compared between the conventional antioxidants and the compounds of the invention and the results are given in Table 1, below.

## Cc1cc(C(C)(C)C)c(O)c(C(C)(C)C)c1 [BHT, butylhydroxytoluene, reference compound]
Sample amount 10 μg
  antioxidative activity (DPPH radical scavenging activity): 74%
Sample amount 20 μg
  antioxidative activity (DPPH radical scavenging activity): 87%
Sample amount 100 μg
  antioxidative activity (DPPH radical scavenging activity): 91%
